Drawing on paper PMC7819943, “Rice protein-binding microarrays: a tool to detect cis-acting elements near promoter regions in rice”, this text covers binding signal for 42 sequences.

The chains behind the UniProt entries cited, without tags or fusion partners.
UniProt Q0JBA9, entry or part of it: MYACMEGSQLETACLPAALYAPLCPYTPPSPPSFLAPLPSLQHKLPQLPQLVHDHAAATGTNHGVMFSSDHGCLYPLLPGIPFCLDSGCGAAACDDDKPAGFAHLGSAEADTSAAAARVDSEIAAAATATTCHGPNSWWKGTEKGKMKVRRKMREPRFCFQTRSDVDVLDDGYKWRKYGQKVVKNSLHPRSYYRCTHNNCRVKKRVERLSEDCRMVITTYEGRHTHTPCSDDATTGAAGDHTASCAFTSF

The list shows a part of the results.

For this assay, the target named is OsWRKY34 (Oryza sativa, UniProt Q0JBA9 1-250). Kind of assay: protein-binding microarray (RPBM); PBS, 2% BSA, 51.3 ng/ul salmon testes DNA, 50 uM zinc acetate, 200 nM TF, 25 C, 1 h; high values mean tight binding. Particulars: protein: recombinant; tags: N-terminal polyhistidine and DsRed monomer fusion (pET32a); label: CyDye5-dUTP incorporated in the synthesized complementary strand; 3' TTTTT single-stranded linker to array surface; dsDNA, one strand shown. A digest of the protocol:
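The binding signal is fluorescence intensity per array feature (arbitrary units). Readings came from an Axon 4000B scanner after a washed, 2% BSA-blocked, double-stranded custom Agilent array had been incubated for 1 h at 25 °C with 200 nM protein and 50 µM zinc acetate. The protein was a Ni–NTA-purified transcription factor fused N-terminally to polyhistidine and DsRed, expressed in E. coli BL21-CodonPlus.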
Consider “TTTGGCGCGCCTAGTATTTATAGCCTGTATACAACACTTACGGAGTCACCTAGTGCAG”, for which the binding signal was 9400 fluorescence intensity (a.u.). As for “TCTGTATTAGCGTTCGGTTGTTTTATTTGACTTTCCAAATCGGAGTCACCTAGTGCAG”, the figure is 8360 fluorescence intensity (a.u.); as for “AGTTTCCACTGATCTCCAGCGCTTTTTGGATCGACGGCGACGGAGTCACCTAGTGCAG”, 8480 fluorescence intensity (a.u.); as for “TCATGTTGTCTATTGCTGTTCTTGTTCCCATTTGCACGTTCGGAGTCACCTAGTGCAG”, 11700 fluorescence intensity (a.u.). As for “ACCACGCGCCGCCCAAAACCTCCGCCGCGTTTCGCACCACCGGAGTCACCTAGTGCAG”, the binding signal was 9630 fluorescence intensity (a.u.). For “CTACTTCGAGCATCGCCGCCGCGTTTCCCAGCTGCCACTGCGGAGTCACCTAGTGCAG”, the binding signal is 9910 fluorescence intensity (a.u.). The same measure for “GCGTGTGTATATATTGGTGTGGAGGAGGAGGAGAAAGGGGCGGAGTCACCTAGTGCAG”: 8500 fluorescence intensity (a.u.). As for “CAGCAGCCGCCTCGCATTCTCACTTGCGATCCAAAATTAACGGAGTCACCTAGTGCAG”, the figure is 8280 fluorescence intensity (a.u.); as for “CTCGCTGATTTCGCTCTTTCCATATTCCCCAAGTCAAAAACGGAGTCACCTAGTGCAG”, 13800 fluorescence intensity (a.u.). As for “AAACTTTTCTACACACATAAACTCCTAACTTTTTTTTTCCCGGAGTCACCTAGTGCAG”, the figure is 8670 fluorescence intensity (a.u.); as for “CCGAGATTTCTTACTCTGAGGCTTTTACCGTTTCATGTCACGGAGTCACCTAGTGCAG”, 8360 fluorescence intensity (a.u.); as for “TGTATTGTCATCGTGTAATAGTGCGTGTTTCTTCTAGTTCCGGAGTCACCTAGTGCAG”, 10500 fluorescence intensity (a.u.). “CTTACATCTAGTACCGGACGATTTTTATTTATGGGCAATTCGGAGTCACCTAGTGCAG”: the binding signal is 8200 fluorescence intensity (a.u.). The same measure for “ACATATTTCAATGTGTATCTTCACTGTGTTTCATAATTTTCGGAGTCACCTAGTGCAG”: 8950 fluorescence intensity (a.u.); for “TCGCCACTGCAGATCTTCTCTTTTAACTCCGTCGAATTCACGGAGTCACCTAGTGCAG”: 8850 fluorescence intensity (a.u.); for “CCAACGCCTGATTCGCTTCTCCATCTGCTTGCATTCAACCCGGAGTCACCTAGTGCAG”: 8490 fluorescence intensity (a.u.). For “ACCACTGCATAAATTCTCAACATATGCTTGTGTTTTTTTTCGGAGTCACCTAGTGCAG”, the binding signal is 8600 fluorescence intensity (a.u.).

For the sequence “CCCGGCGGTTCGCCCGCCCATCCGTCTGATCGGCATCGAACGGAGTCACCTAGTGCAG”, the binding signal was 8760 fluorescence intensity (a.u.).

As for “TGCAAAACCTTGTTTGTGAATTGTCACTGCCTGTACGGGGCGGAGTCACCTAGTGCAG”, the binding signal was 9020 fluorescence intensity (a.u.).

Turning to “CGTGGGGTTTTCTTGTTTCGGAGGTAGGGAGAGGTTTCGTCGGAGTCACCTAGTGCAG”, the binding signal was 11900 fluorescence intensity (a.u.). In the case of “TTCTATTACGTATCATCTATTTTGCACAACCCTTTAAAGTCGGAGTCACCTAGTGCAG”, the binding signal was 8690 fluorescence intensity (a.u.). Take “CCCTCTCGCGAGAACAACAGGGTACAACCTTACATTACTGCGGAGTCACCTAGTGCAG”: the binding signal was 8350 fluorescence intensity (a.u.). As for “TCCCTCTCGCCGGTCGCCGCCCTCGTCCCCGCCGCCGCCGCGGAGTCACCTAGTGCAG”, the figure is 14200 fluorescence intensity (a.u.); as for “CATCCCCGCGAGTCTCATGTATACATTTCACATATCAAACCGGAGTCACCTAGTGCAG”, 9810 fluorescence intensity (a.u.); as for “GATCTTTTTTCCTCCGATGGCCTCCGTGCAGCTGACCAGCCGGAGTCACCTAGTGCAG”, 9000 fluorescence intensity (a.u.). As for “GCAAGATGAATACAGGGTTCGGTTCCATTATGGTCATCCTCGGAGTCACCTAGTGCAG”, the figure is 8480 fluorescence intensity (a.u.); as for “GGCAAGGCGGCGGGTCTCCCGTTCTTGGATGGTCGTTGTTCGGAGTCACCTAGTGCAG”, 8400 fluorescence intensity (a.u.). Turning to “CCACCGCACTACTCCCGATCGGTCTCACGGATTTACCCGGCGGAGTCACCTAGTGCAG”, the binding signal was 9440 fluorescence intensity (a.u.).

With “ATATACTTTCCCTGTATCTGTGTATCATATTATGTGACTACGGAGTCACCTAGTGCAG”, the binding signal was 10900 fluorescence intensity (a.u.). Take “TTCTTGTCATTTTGTTGGGCTCCCTGTTCATCAAGATTATCGGAGTCACCTAGTGCAG”: the binding signal is 8140 fluorescence intensity (a.u.). As for “CATCACATCTCATACTTCGGTCGGTTCTGGGCAGGCTGAACGGAGTCACCTAGTGCAG”, the figure is 8280 fluorescence intensity (a.u.); as for “TCTCGTCTACTACTAGTACTAGCTTCTTCTCCTCCATTTCCGGAGTCACCTAGTGCAG”, 10800 fluorescence intensity (a.u.); as for “TGCAGCCCATGTTTTATCTGTTTTTTAGTGTGTTGGCCCACGGAGTCACCTAGTGCAG”, 8580 fluorescence intensity (a.u.). The same measure for “CACTCTCTCTCGATCTCGTGCTCTCCTCCTTTCGCGAGCGCGGAGTCACCTAGTGCAG”: 11000 fluorescence intensity (a.u.); for “CTGATACCTTGGTTGCTTTGTGGTTTTCCAAATATTCTTGCGGAGTCACCTAGTGCAG”: 10500 fluorescence intensity (a.u.).

Turning to “TCTCCTGCCGCTGCTCGCCTCTCTCTCCGTGCGGAGGAGTCGGAGTCACCTAGTGCAG”, the binding signal was 8600 fluorescence intensity (a.u.). The same measure for “TCACACCAGCGAGACAGACCACCGCGCCACGTCCGTCGCCCGGAGTCACCTAGTGCAG”: 8180 fluorescence intensity (a.u.); for “CAGCCCAGTACACCTCTCCCTGGTACACCCCTCGACGGAACGGAGTCACCTAGTGCAG”: 9440 fluorescence intensity (a.u.); for “GCTGTTTTTCTTCATGTAGTTACCCTTCTAGAAAAGCAATCGGAGTCACCTAGTGCAG”: 8340 fluorescence intensity (a.u.). The same measure for “CTGTTCTTTCTTTCACTGTCGGATGTGATGACTGTTTGTCCGGAGTCACCTAGTGCAG”: 13000 fluorescence intensity (a.u.); for “CTCAGTATCCTGCTCGTCCTAGTCTGCTTTCTCCATCTGACGGAGTCACCTAGTGCAG”: 14400 fluorescence intensity (a.u.).

Consider “GCTGCATCTCTCCCTCTCTCTCGCGTTCCATCGCCACGCCCGGAGTCACCTAGTGCAG”, for which the binding signal is 11000 fluorescence intensity (a.u.).
